Out of some 400,000 compounds screened, about 5,500 (1.4%) were called active. The inconclusive results got no clear call from the source; some entries with a clear call stand among them for comparison. The call rests on the fitted dose curve; in most records, active means well fitted cell-killing curve with a large enough effect; inconclusive means small, poorly fitted or top-dose-only effect, or effect the other way; inactive means flat fitted curve, though single readings scatter. Where the call is inconclusive, the potency comes from a doubtful curve fit.
experiment: qHTS assay for MDR1-selective chemotherapeutics: Primary screen using the parental adenocarcinoma cell KB-3-1; details: KB-3-1 viability, CellTiter-Glo ATP luminescence, 72 h; activity change, negative = cytotoxic: at 46.1 µM (top of the series); further: nearly all actives have a fitted effect of over 60% in size
Procedure, shortened: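 Multi-concentration cytotoxicity screen in KB-3-1 cells grown in DMEM lacking phenol red with 10% FBS. After 72 h at 37 °C with compound, ATP-dependent luminescence was recorded.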
On the % scale 0 is the no-effect control and ±100 the full control effect; potency means the concentration at half of the fitted maximal effect.

| SMILES | activity change, negative = cytotoxic | Potency |
| --- | --- | --- |
| Cc1oc(-c2cccs2)nc1CN1CCC(CO)(CCOc2ccccc2)CC1 | inactive: -2.32% | – |
| CCOc1ccc2nc(NC(=O)Nc3ccccc3)sc2c1 | inactive: 11.8% | – |
| O=C1Cc2cc(S(=O)(=O)N3CCN(c4ccc(F)cc4)CC3)ccc2N1 | – | inactive |
| COc1ccc(Cn2c(SCC(=O)N3CCN(c4ccc(F)cc4)CC3)nc3ccccc32)cc1 | – | inconclusive: 16.4 µM [cytotoxic, single point] |
| CCOC(=O)Cn1c(CN(C)Cc2ccccc2)nc2c1c(=O)n(C)c(=O)n2C | inactive: 4.98% | – |
| C[C@@H](CN1C2=NC[C@H](Cc3ccccc3)N2C[C@H]1Cc1ccc(O)cc1)NC(=O)CCC1CCCCC1 | – | inconclusive: 29.1 µM [cytotoxic, single point] |
| Cc1ccccc1CNC(=O)CN1C(=O)CCCc2ccccc21 | inactive: 3.21% | – |
| CC(C)C[C@H]1CN([C@@H](CC(C)C)CN2CCCC2CN2C(=S)NC[C@@H]2Cc2ccc(O)cc2)C(=S)N1CCc1ccccc1 (some centres undefined) | – | inconclusive: 18.4 µM [cytotoxic, single point] |
| Cc1cc(C(=O)OCC(N)=O)c(C)n1-c1ccccc1 | inconclusive: 0% | – |
| CN1c2ccccc2SC2C(c3ccccc3)=NOC21 (centres undefined) | – | inconclusive: 23.1 µM [cytotoxic, single point] |
| CC(NC(=O)C1CCN(Cc2ccccc2)CC1)c1cccc2ccccc12 (centres undefined) | inactive: 0% | – |
| COc1ccc(/C=C/c2ccnc3ccccc23)cc1OC | inconclusive: 23.5% | – |
| C=CCn1c(=O)c(C(=O)Nc2ccccc2C)c(O)c2ccccc21 | – | inconclusive: 25.9 µM [cytotoxic, single point] |
| c1ccc(C2c3[nH]c4ccccc4c3CCN2Cc2cccn2-c2cccnc2)nc1 (centres undefined) | – | inconclusive: 25.9 µM [cytotoxic, partial curve, poor fit] |
| CCN(CC)CCNC(=O)c1ccc(NC(=O)c2ccc(Cl)c(S(=O)(=O)N3CCCCCC3)c2)cc1 | – | inconclusive: 29.1 µM [cytotoxic, single point] |
| COc1ccc(C(C(=O)NC2CCCC2)N(Cc2ccccc2)C(=O)c2nsc(Cl)c2Cl)cc1 (centres undefined) | inactive: -9.46% | – |
| CC(C)c1ccc(NC(=O)C2(C)Cc3c(-c4ccc(N(C)C)cc4)ccnc3O2)cc1 (centres undefined) | inactive: -0.356% | – |
| CCc1ccccc1NC(=O)CN(c1ccccc1OC)S(=O)(=O)c1ccc(C)cc1 | inactive: 10.3% | – |
| CCN(C[C@H]1N[C@@](CC)(C(=O)OC)[C@H]2C(=O)N(Cc3ccccc3)C(=O)[C@@H]12)C(=O)Nc1ccc(C(F)(F)F)cc1 | inactive: 0% | – |
| CC1N(C)c2cc(NC(=O)c3ccco3)c(P(=O)(Nc3ccc([N+](=O)[O-])cc3)N3CCOCC3)cc2C1(C)C (centres undefined) | – | inconclusive: 29.1 µM [cytotoxic, single point] |
| N#C/C(=C/c1ccc(-c2ccc(S(=O)(=O)N3CCOCC3)cc2)o1)C(=O)NC1CC1 | – | inconclusive: 23.1 µM [rising, partial curve, poor fit] |
| OC(c1ccc(Cl)c(F)c1)c1ncc(-c2cccc3ccccc23)[nH]1 (centres undefined) | – | inconclusive: 29.1 µM [cytotoxic, single point] |
| C=C1C(=O)O[C@@H]2C[C@@H](C)[C@@H]3C=CC(=O)[C@@]3(C)[C@@H](OC(C)=O)[C@H]12 | – | inconclusive: 3.26 µM [cytotoxic, partial curve, poor fit] |

| SMILES | activity change, negative = cytotoxic | Potency |
| --- | --- | --- |
| COc1ccc(Br)c(/C=N/NC(=O)COc2ccc(-c3ccccc3)cc2)c1 | – | inconclusive: 29.1 µM [cytotoxic, single point] |
| CN(C(=O)CSc1nncn1C)C1CCCN(Cc2ccccc2F)C1 (centres undefined) | inactive: -0.3% | – |
| COc1ccc(-c2ncccc2O)cc1 | inactive: 7.7% | – |
| COc1ccccc1CNCC(O)(c1ccc(Cl)cc1)c1ccc(Cl)cc1 | inactive: -1.63% | – |
| Cc1cc(C(=O)Nc2nncs2)oc1C | inactive: 7.96% | – |
| O=C(c1ccccc1)c1ccc2nc(N3CCCCC3)c3nncn3c2c1 | – | inconclusive: 29.1 µM [cytotoxic, single point] |
| CCCCC1=NN(C(=O)c2ccco2)C(O)(C(F)(F)F)C1 (centres undefined) | – | inconclusive: 16.4 µM [cytotoxic, partial curve, poor fit] |
| COc1ccc(C2CC(c3ccc(F)cc3)=NN2c2ccccc2)cc1OC (centres undefined) | inconclusive: -0.346% | – |
| CSc1ncnc2c1ncn2CCCNCC(c1ccccc1)c1ccccc1 | inactive: -22.2% | – |
| Cc1ccccc1C(=O)Nc1cccc(NC(=O)c2ccc(C(C)(C)C)cc2)c1 | – | inconclusive: 14.6 µM [cytotoxic, partial curve, poor fit] |
| CCOc1cc(/C=N/NC(=O)c2cccc([N+](=O)[O-])c2)ccc1OS(=O)(=O)c1ccccc1 | – | inconclusive: 3.66 µM [rising, full curve] |
| Cc1nn(C(C)C(=O)NCCc2ccccc2)c(=O)c2c1sc1ccccc12 (centres undefined) | inactive: 3.29% | – |
| Cc1ccccc1Cn1c(CN2CCc3ccccc3C2)nc2c1c(=O)n(C)c(=O)n2C | inactive: -1.03% | – |
| COc1ccc(CN=C(N)N=C(N)N)cc1Cl | inactive: -19.9% | – |
| Cc1oc2c(c1C(=O)Nc1ccc(OC(F)(F)F)cc1)C1=NCCN1C=N2 | inactive: 2.99% | – |
| C=CCN(c1ccccc1)S(=O)(=O)c1cccc(C(=O)Nc2ccc(N3CCOCC3)cc2)c1 | – | inconclusive: 16.4 µM [cytotoxic, single point] |
| Cn1ccc2c(-c3ccccc3F)cc3c(c21)C1CCC3C1 (centres undefined) | inactive: -0.0235% | – |
| COc1ccc(OC)c(Nc2c3ccccc3nc3ccccc23)c1 | – | active: 11.6 µM |
| COc1cc(/C=N/N=C(N)N)ccc1OCc1ccc(Cl)cc1 | – | inconclusive: 20.6 µM [cytotoxic, single point] |
| Cc1cc(C)c2c(c1)NC(c1cc3c(cc1Br)OCO3)C1CC=CC21 (centres undefined) | – | inconclusive: 25.9 µM [cytotoxic, single point] |
| COc1ccc(C(=S)N2CCCC2)cc1OC | inactive: 2.18% | – |
| CCOC(=O)Cc1csc(NC(=S)NC(=O)c2cc(OC)c(OC)c(OC)c2)n1 | – | inconclusive: 29.1 µM [rising, single point] |
| CC(C)C[C@H]1CN([C@@H](Cc2ccc(O)cc2)CN2CCC[C@@H]2CN2C(=O)C(=O)NC[C@@H]2Cc2ccccc2)C(=O)C(=O)N1CC1CCCCCC1 | – | inconclusive: 20.6 µM [cytotoxic, single point] |

Quoted at random: five entries already listed.

| SMILES | activity change, negative = cytotoxic | Potency |
| --- | --- | --- |
| CC(NC(=O)C1CCN(Cc2ccccc2)CC1)c1cccc2ccccc12 (centres undefined) | inactive: 0% | – |
| CSc1ncnc2c1ncn2CCCNCC(c1ccccc1)c1ccccc1 | inactive: -22.2% | – |
| CN1c2ccccc2SC2C(c3ccccc3)=NOC21 (centres undefined) | – | inconclusive: 23.1 µM [cytotoxic, single point] |
| C=CCN(c1ccccc1)S(=O)(=O)c1cccc(C(=O)Nc2ccc(N3CCOCC3)cc2)c1 | – | inconclusive: 16.4 µM [cytotoxic, single point] |
| Cc1cc(C)c2c(c1)NC(c1cc3c(cc1Br)OCO3)C1CC=CC21 (centres undefined) | – | inconclusive: 25.9 µM [cytotoxic, single point] |

Following part

| SMILES | activity change, negative = cytotoxic | Potency |
| --- | --- | --- |
| O=C(Nc1cccc([N+](=O)[O-])c1)Nc1cccc([N+](=O)[O-])c1 | inactive: -16.9% | – |
| COc1ccc(C2CC(c3cccs3)=NN2C(=O)COC(=O)c2cncc(Br)c2)cc1OC (centres undefined) | inactive: -7.44% | – |
| O=C(COc1ccccc1)NCC(c1ccco1)N1CCN(c2ccccc2F)CC1 (centres undefined) | – | inconclusive: 20.6 µM [cytotoxic, single point] |
| O=C1OCCN1C(=O)[C@H]1[C@H](c2ccc(Cl)cc2)C(c2ccc(F)cc2)=NN1c1ccccc1 | inconclusive: -32% [cytotoxic] | – |
| CCN(c1ccccc1)S(=O)(=O)c1ccc(C(=O)NCC(=O)Nc2ccc(F)c(F)c2F)cc1 | inconclusive: -41.7% [cytotoxic] | – |
| COC(=O)[C@@]12CCCCN1[C@H](c1ccc(-c3ccc(F)cc3)cc1)[C@H]1C(=O)N(C)C(=O)[C@H]12 | – | inconclusive: 29.1 µM [cytotoxic, partial curve, poor fit] |
| O=C(NCCC(=O)N(Cc1ccco1)Cc1cccs1)c1ccc(Br)cc1 | – | inconclusive: 25.9 µM [cytotoxic, single point] |
| CC(=O)N1c2ccc(S(=O)(=O)NCC3CCC(C(=O)Nc4cccc(C)n4)CC3)cc2CC1C (centres undefined) | – | inconclusive: 16.4 µM [cytotoxic, partial curve] |
| Cc1ccc2[nH]c(=O)c(CN(CC3CCCO3)C(=S)Nc3ccccc3)cc2c1 (centres undefined) | – | inconclusive: 29.1 µM [cytotoxic, single point] |
| CCN1/C(=C\c2ccc3ccccc3[n+]2CC)Sc2cc(C)ccc21 | – | active: 4.61 µM |
| COc1ccc(C(=O)N/N=C\c2ccc(OC)c(COc3ccccc3Br)c2)c(OC)c1 | – | inconclusive: 29.1 µM [cytotoxic, single point] |
| COc1cc2sc(-c3ccccc3OC)c(-c3ccc(OCCN4CCCCC4)cc3)c2cc1OC | – | inconclusive: 29.1 µM [cytotoxic, single point] |
| CC[n+]1oc(-c2ccccc2)cc1C | – | inconclusive: 29.1 µM [rising, single point] |
| COc1ccc(NC(=O)C2Cc3c(-c4ccc5c(c4)OCO5)ccnc3O2)cc1 (centres undefined) | – | active: 9.2 µM |
| N#Cc1ccccc1S(=O)(=O)c1ccccc1C(=O)Nc1ccccc1 | inactive: 16.1% | – |
| COc1ccc(C(=O)/C=C/Sc2nc3ccccc3o2)cc1 | – | inconclusive: 18.4 µM [cytotoxic, single point] |
| O=C(NCCCN1CCC(Cc2ccccc2)CC1)c1ccc2nc(N3CCOCC3)sc2c1 | – | inconclusive: 18.4 µM [cytotoxic, single point] |
| CCOc1cccc(OCCCCn2ccnc2)c1 | – | inconclusive: 25.9 µM [cytotoxic, single point] |
| O=C(NCc1ccc2c(c1)OCO2)c1ccc(CS(=O)(=O)Cc2cccc(Cl)c2)o1 | – | inconclusive: 23.1 µM [cytotoxic, single point] |
| CN1CCN(Cc2cn(C)nc2-c2ccccc2F)CC1c1ccccc1 (centres undefined) | inconclusive: 20.3% | – |
| COc1ccc(C(=O)/C=C/c2cn(CC(O)CN3CCCCCC3)c3ccccc23)cc1OC (centres undefined) | – | inconclusive: 32.6 µM [cytotoxic, single point] |
| COc1ccccc1/C=C1\SC(=S)N(CCC(=O)N2CCN(C)CC2)C1=O | – | inconclusive: 25.9 µM [cytotoxic, partial curve, poor fit] |
| CCn1c(COc2ccc(=O)n(-c3ccccc3)n2)nnc1SCc1ccccc1C | – | inconclusive: 29.1 µM [cytotoxic, single point] |
